The whole screen tested about 410,000 compounds, of which about 18,000 (4.4%) were called active. The inconclusive results got no clear call from the source; some entries with a clear call stand among them for comparison. No stated cut-off is given here; in the data, active means activity change below about -60%; inconclusive means no clear call, values can overlap the other calls; inactive means above about -39%.
Assay: qHTS Assay for inhibitors of the human cytomegalovirus (HCMV)
Conditions: HFF cells, HCMV-luciferase reporter, 72 h; at 57.5 µM; hits give low values
Outline: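 Inhibition of viral replication was scored as loss of reporter luminescence in HFFs infected with HCMV-luciferase (MOI 1 PFU/cell) for 72 h; compounds tested at 2 doses, normalized to buffer and Salinomycin controls.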
On the % scale 0 is the no-effect control and ±100 the full control effect.

SMILES | activity change, negative = inhibition
Cc1ccc(S(=O)(=O)N(C)C)cc1NC(=O)COC(=O)c1ccc2ccccc2n1 | inactive: 59.3%
O=C(NCC(c1cccs1)N1CCOCC1)c1ccc(Cl)cc1 (configuration not stated) | inactive: -31.1%
CC(=O)Nc1ccc(Oc2cc(C#N)c(C#N)cc2N2CCCCCC2)cc1 | inconclusive: -50.9%
O=C(O)C1SCCN1S(=O)(=O)c1ccc(N=NN2CCOCC2)cc1 (configuration not stated) | inactive: 7.63%
O=C(NCc1cccs1)c1ccc2sc(C3=C[C@@H](O)[C@@H](O)[C@@H](CO)O3)nc2c1 | inactive: 15.1%
Cc1cccn2c(=O)c(C(=O)NCCc3ccccc3)c(O)nc12 | inconclusive: -42.1%
CCn1c(SCC(=O)NCC2CCCO2)nnc1-c1ccc(Cl)cc1 (configuration not stated) | inconclusive: -51.4%
COCCCN(CC(=O)Nc1ccc(N2CCOCC2)cc1)S(=O)(=O)c1ccc(Cl)cc1 | inactive: -38.8%
COc1ccc(CN(CCNC(=O)CCCCC(=O)NCCN(Cc2ccc(OC)cc2)C(C)C)C(C)C)cc1 | inconclusive: -47%
Cc1c(C(=O)OCc2nc3scc(-c4ccccc4)c3c(=O)[nH]2)cccc1[N+](=O)[O-] | inconclusive: -51.8%
CCOCCCNC(=S)NNC(=O)CCn1nc(C)c(Br)c1C | inactive: 22%
CC1CCCN(c2ccc(C(=O)Nc3ccc4c(c3)OCO4)cc2[N+](=O)[O-])C1 (configuration not stated) | inconclusive: -51.6%
Cc1ccc(Cc2c(C3CCCCC3)nc3c4ccccc4ccn23)cc1 | inactive: -30.1%
COc1ccc(-n2cc(C(=O)c3cc4ccccc4oc3=O)c(C(C)=O)n2)cc1 | active: -67.2%
CC(C)(C)c1ccc(C(=O)N2CCCCC2CCN2CCCCC2)cc1 (configuration not stated) | inconclusive: -51.4%
O=C(OCc1cccc([N+](=O)[O-])c1)c1cc2ccccc2oc1=O | inconclusive: -40.7%
O=C(Nc1ccc(Br)cc1F)N1CCC2(CC1)Oc1ccccc1C(=O)N2Cc1ccccc1F | inconclusive: -44.7%
COc1ccc(N2CCN(c3nc4ccc(C)cc4n4nnnc34)CC2)cc1 | inconclusive: -44.4%
COc1ccc(-c2csc(NC(=O)CSc3nnc(Nc4ccccc4C)s3)n2)cc1 | active: -70.2%
O=C(O)CCN1CCc2ccccc2C1c1ccncc1 (configuration not stated) | inconclusive: -50.8%
CNc1ccc2oc(C[C@H]3O[C@@]4(CC[C@H]3C)O[C@H]([C@H](C)C(=O)c3ccc[nH]3)[C@H](C)C[C@H]4C)nc2c1C(=O)O | active: -99.8%
O=C(C[C@H]1C/C=C/CC[C@@H](Cc2ccc(F)cc2)C(=O)OC[C@H](c2ccccc2)NC1=O)NCCO | inconclusive: -47.4%

Taken from the results shown for reference:
SMILES | activity change, negative = inhibition
COc1ccc(CN(CCNC(=O)CCCCC(=O)NCCN(Cc2ccc(OC)cc2)C(C)C)C(C)C)cc1 | inconclusive: -47%
Cc1c(C(=O)OCc2nc3scc(-c4ccccc4)c3c(=O)[nH]2)cccc1[N+](=O)[O-] | inconclusive: -51.8%

From PubChem BioAssay AID1259415 (National Center for Advancing Translational Sciences (NCATS), 2018)
